{"source": "patent US20030064909A1", "about": "“Laundry detergent and/or fabric care compositions comprising a transferase” (The Procter & Gamble Company, priority 1998, published 2003)", "origin": "cited, not measured here", "conditions": "stability over a wide pH range", "note": "Some of these results come from one statement about several compounds together. For at least one compound, name, drawing or mass did not settle the structure."}
{"smiles": "O=c1[nH]sc2ccccc12", "note": "[Proxel, 1,2-benzisothiazolin-3-one]", "values": [{"measurement": "pH range over which stable", "value": "4-12 pH"}]}
